Experimental data: PubChem BioAssay AID1347076 (National Center for Advancing Translational Sciences (NCATS), 2019)
Among all 400,000 compounds or so, about 13,000 (3.2%) were called active. This list was built around the results that the source calls inconclusive (neither active nor inactive); the mix of calls is not that of the screen. The call rests on the fitted dose curve; in most records, active means well fitted cell-killing curve with a large enough effect; inconclusive means small, poorly fitted or top-dose-only effect, or effect the other way; inactive means flat fitted curve, though single readings scatter. Potencies of inconclusive entries are doubtful fits and often do not repeat.

Assay: qHTS assay for MDR1-selective chemotherapeutics: Primary screen using the drug-selected MDR subline cells KB-V1; further: nearly all actives have a fitted effect of over 60% in size
Settings: KB-V1 MDR cells viability, CellTiter-Glo, 72 h; activity change, negative = cytotoxicity: at 46.1 µM (top of the series)
How it was run: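 Compound-treated KB-V1 multidrug-resistant cells, 72 h, 37 degrees C; viability by CellTiter-Glo. Fitted qHTS curves give the values.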
On the % scale 0 is the no-effect control and ±100 the full control effect; potency means the concentration at half of the fitted maximal effect.

SMILES | Potency | activity change, negative = cytotoxicity
O=C(CC1OC(=O)c2ccccc21)Nc1ccc(Cl)c(S(=O)(=O)N2CCCCC2)c1 (stereo not given) | inconclusive: 29.1 µM [cytotoxic, single point] | –
COc1ccc(NC(=O)C2(C)Cc3c(-c4ccccc4)ccnc3O2)cc1OC (stereo not given) | inconclusive: 2.91 µM [cytotoxic, full curve] | –
CCOc1ccccc1N1CCN(CC(=O)Nc2ccnn2C2CCCC2)CC1 | inconclusive: 29.1 µM [cytotoxic, single point] | –
COc1ccc(N(CC(=O)Nc2ccc3c(c2)OCO3)S(=O)(=O)c2ccccc2)cc1OC | – | inactive: 0%
CCc1ccc(NC(=O)CSc2nc3ccccc3nc2Cc2ccc(C)cc2)cc1 | inconclusive: 29.1 µM [rising, single point] | –
Cc1ccccc1NC(=O)C(C)OC(=O)CCC(=O)N(CC(C)C)c1c(N)n(CC(C)C)c(=O)[nH]c1=O (stereo not given) | inconclusive: 29.1 µM [rising, single point] | –
O=[N+]([O-])c1c(Nc2ccccc2O)cc(N2CCOCC2)c2nonc12 | inconclusive: 16.4 µM [cytotoxic, partial curve] | –
CCOC(=O)N1CCC(Nc2nc(OC)nc(OC)n2)CC1 | inconclusive: 8.2 µM [cytotoxic, partial curve, poor fit] | –
COc1ccccc1NC(=O)C(C)OC(=O)C1CCN(S(=O)(=O)c2ccc(C)c(C)c2)CC1 (stereo not given) | active: 7.31 µM | –
CCCCCCNc1nc(NCc2ccco2)nc(OCC)n1 | inconclusive: 25.9 µM [cytotoxic, single point] | –
COc1ccc(Cl)cc1NC(=O)Cn1ncc2c3ccccc3n(C)c2c1=O | – | inactive: 27.1%
CCOC(=O)c1[nH]c(C)c(C(=O)NCCCOC(C)C)c1C | inconclusive: 13 µM [cytotoxic, partial curve] | –
CC(=O)N1CCN(c2ccccc2NC(=O)COc2ccc(Cl)cc2Cl)CC1 | inconclusive: 29.1 µM [cytotoxic, single point] | –
CCc1ccc2c(c1)C(c1ccc([N+](=O)[O-])cc1)=NNC(c1ccc(Br)cc1)=N2 | inconclusive: 25.9 µM [cytotoxic, single point] | –
CN1C(=O)[C@H]2[C@@H](c3ccc(C(F)(F)F)cc3)N[C@]3(CCCN(Cc4ccc(C(F)(F)F)cc4)C3=O)[C@H]2C1=O | – | inactive: -28.8%
CCc1noc(N)c1C(=O)Nc1ccc(F)c(Cl)c1 | inconclusive: 29.1 µM [cytotoxic, single point] | –
O=C(CCN1C(=O)c2ccccc2S1(=O)=O)Nc1ccc2c(c1)OCCO2 | inconclusive: 20.6 µM [rising, partial curve, poor fit] | –
Cc1nn(CC(=O)NCc2ccc(F)cc2)c2ccccc12 | – | inactive: 12.9%
CCN(CC)C(=O)[C@H]1C[C@H](CC(=O)NCc2cccc(C(F)(F)F)c2)C(=O)N2CCc3c([nH]c4cc(-c5ccco5)ccc34)[C@]12C | inconclusive: 29.1 µM [cytotoxic, single point] | –
CC(=O)N(Cc1cc2ccccc2[nH]c1=O)c1ccc(C)cc1 | – | inactive: -6.36%
Cc1c(C(=O)NCCS(=O)(=O)N2CCN(c3ccccc3F)CC2)cccc1[N+](=O)[O-] | inconclusive: 25.9 µM [cytotoxic, single point] | –
O=C(Nc1nc2c(s1)CCCC2)c1cccnc1 | inconclusive: 29.1 µM [cytotoxic, single point] | –

SMILES | Potency | activity change, negative = cytotoxicity
C=CCn1c(SCc2ccccc2C#N)nnc1-c1cc(Br)ccc1O | active: 3.66 µM | –
CCOC(=O)c1cnc(N2CCN(c3ccccc3)CC2)[nH]c1=O | inconclusive: 23.1 µM [cytotoxic, partial curve] | –
Cc1ccc(C)c(N2CCN(Cc3nnnn3C3CCCCC3)CC2)c1 | active: 23.1 µM | –
Cc1ccc(C)c(N2CCN(C(=O)CCC(=O)Nc3ccc4nc(N5CCCCC5)cc(C)c4c3)CC2)c1 | – | inactive: -3.43%
Cc1ccc(NC(=O)CSc2ncccn2)cc1S(=O)(=O)N1CCCCC1 | inconclusive: 14.6 µM [cytotoxic, partial curve, poor fit] | –
CNC(=O)c1c[nH]c2ccc(S(=O)(=O)Nc3cccc(SC)c3)cc2c1=O | inconclusive: 18.4 µM [rising, single point] | –
O=S(=O)(c1ccccc1)N1CCN=C1SCc1ccc(Cl)cc1 | – | inactive: -6.62%
CCN(CC)CCOc1cc2c(nn1)Oc1ccccc1N2C | inconclusive: 11.6 µM [cytotoxic, partial curve, poor fit] | –
CC(C)(C)OC(=O)C[C@H]1C/C=C\C[C@H](CC(=O)NCCO)C(=O)N2CCC[C@@H]2COC1=O | inconclusive: 9.2 µM [rising, partial curve, poor fit] | –
O=C(Cn1c(=O)c2cccn2c2ccccc21)NCCCN1CCCCC1 | inconclusive: 1.64 µM [rising, full curve, poor fit] | –
CCc1sc(NC(=O)CN2CCOCC2)nc1-c1ccccc1 | inconclusive: 20.6 µM [cytotoxic, single point] | –
S=C(Nc1cccnc1)N1CCc2ccccc21 | inconclusive: 25.9 µM [rising, single point] | –
COc1cc(O)c(C(CC(=O)N2CCN(c3ccccc3)CC2)c2cc(OC)c(OC)c(OC)c2)c(OC)c1 (stereo not given) | – | inactive: 8.58%
CCOC(=O)c1ccc2nc(C)cc(Nc3cccc(C(=O)O)c3)c2c1 | inconclusive: 18.4 µM [rising, partial curve, poor fit] | –
CCOC(=O)c1c(C)n(-c2ccccc2)c2ccc(OC(=O)c3ccccc3NC(=O)C(C)C)cc12 | inconclusive: 8.2 µM [cytotoxic, partial curve, poor fit] | –
CCCCn1c(=O)cc(O)c2ccccc21 | – | inactive: -12.9%
CCN(CC)S(=O)(=O)c1ccc2[nH]c(=O)cc(C(=O)NCC3CCCO3)c2c1 (stereo not given) | – | inactive: 0%
CC1CC(CC(=O)Nc2nc(-c3ccccc3)cs2)C(=O)O1 (stereo not given) | inconclusive: 29.1 µM [rising, partial curve, poor fit] | –
COc1cccc(NC(=S)N(CCc2ccc(OC)c(OC)c2)Cc2ccccn2)c1 | inconclusive: 29.1 µM [cytotoxic, single point] | –
S=C(Nc1ccccc1Cl)NC1CCN(Cc2ccccc2)CC1 | inconclusive: 20.6 µM [cytotoxic, partial curve, poor fit] | –
C[C@@H]1CN([C@H](C)CO)C(=O)CCCn2cc(nn2)CO[C@H]1CN(C)C(=O)Nc1ccc2c(c1)OCO2 | inconclusive: 32.6 µM [rising, partial curve, poor fit] | –
O=C(Oc1c(-c2ccccc2)oc2ccccc2c1=O)c1ccccc1 | active: 11.6 µM | –

SMILES | Potency | activity change, negative = cytotoxicity
Cc1cccnc1C(NC(=O)C1CCN(CCOc2ccc(Cl)cc2Cl)CC1)c1ccc(Cl)cc1 (stereo not given) | inconclusive: 29.1 µM [cytotoxic, single point] | –
CCOc1ccc2oc(C(=O)NNC(=O)c3ccccc3O)c(C)c2c1 | inconclusive: 9.2 µM [cytotoxic, partial curve] | –
Cc1ccc2ccc(C(Nc3ccccc3)c3ccc(F)cc3)c(O)c2n1 (stereo not given) | inconclusive: 5.8 µM [cytotoxic, full curve] | –
CCN1CCN(c2cc(C)c3cc(NC(=S)N4CCCC(C)C4)ccc3n2)CC1 (stereo not given) | inconclusive: 13 µM [cytotoxic, partial curve, poor fit] | –
Cc1cc(NCCCN2CCOCC2)n2nc(C)c(-c3ccccc3)c2n1 | inconclusive: 16.4 µM [cytotoxic, partial curve] | –
O=C(Nc1ccc(Br)cc1)Nc1cnccn1 | inconclusive: 6.51 µM [cytotoxic, partial curve] | –
C=CCn1cc(/C=C/c2cc[n+](C)cc2)c2ccccc21 | – | inactive: -18%
COc1ccc(S(=O)(=O)N2CCCCC2)cc1NC(=O)C1COc2ccccc2O1 (stereo not given) | inconclusive: 18.4 µM [cytotoxic, partial curve] | –
CCOC(=O)c1cnn(-c2ccc(C(=O)Nc3ccc(OC(F)(F)F)cc3)cc2)c1N | – | inactive: 0%
Cc1cccc(C)c1-n1nnnc1SCC(=O)c1c(N)n(C2CC2)c(=O)[nH]c1=O | inconclusive: 20.6 µM [rising, single point] | –
CCOC(=O)Cc1csc(/N=C/c2c(O)n(-c3ccc(C)cc3C)c(=O)c3ccccc23)n1 | inconclusive: 5.8 µM [cytotoxic, partial curve] | –
CC(NC(=O)Cn1nc(C(=O)O)c2ccccc2c1=O)c1ccccc1 (stereo not given) | inconclusive: 32.6 µM [rising, single point] | –
COc1ccc(C(=O)N2CCN(CCc3ccccc3)CC2)cc1[N+](=O)[O-] | inconclusive: 18.4 µM [cytotoxic, single point] | –
O=C(CN1CCN(CC(=O)Nc2ccc(-c3ccccc3)cc2)CC1)Nc1ccc(F)cc1 | inconclusive: 8.2 µM [cytotoxic, partial curve] | –
O=C(c1ccc2c(c1)N(Cc1ccccc1F)C(=O)c1ccccc1S2)N1CCOCC1 | inconclusive: 2.91 µM [cytotoxic, full curve] | –
COc1ccccc1CNC(=O)Cn1c(=O)oc2cc(S(=O)(=O)N3CCCC3)ccc21 | inconclusive: 14.6 µM [cytotoxic, single point] | –
Cc1noc(C)c1CSc1ncnc2sc3c(c12)CCCCC3 | inconclusive: 18.4 µM [cytotoxic, single point] | –
CCOC(=O)c1ccc(NC(=O)C2CC(=O)NC(=Nc3ccc(C)c(C)c3)S2)cc1 (stereo not given) | – | inactive: 0%
O=C(Nc1cc(S(=O)(=O)Nc2ccccc2F)ccc1Cl)c1ccc(F)cc1F | – | inactive: -14.8%
COc1cccc(CC2(CO)CCCN(Cc3ccc(OC)c(C)c3OC)C2)c1 (stereo not given) | – | inactive: -9.98%
COc1ccc(-n2nc(C(=O)NCC(=O)N(C)Cc3ccccc3)c3ccccc3c2=O)cc1 | inconclusive: 2.59 µM [cytotoxic, full curve, poor fit] | –

Entries of single compounds as entered above. Order of values: Potency	activity change, negative = cytotoxicity
CCOC(=O)c1cnn(-c2ccc(C(=O)Nc3ccc(OC(F)(F)F)cc3)cc2)c1N reads –	inactive: 0%
CCOC(=O)Cc1csc(/N=C/c2c(O)n(-c3ccc(C)cc3C)c(=O)c3ccccc23)n1 reads inconclusive: 5.8 µM [cytotoxic, partial curve]	–
Cc1cccnc1C(NC(=O)C1CCN(CCOc2ccc(Cl)cc2Cl)CC1)c1ccc(Cl)cc1 (stereo not given) reads inconclusive: 29.1 µM [cytotoxic, single point]	–
Cc1cc(NCCCN2CCOCC2)n2nc(C)c(-c3ccccc3)c2n1 reads inconclusive: 16.4 µM [cytotoxic, partial curve]	–
